Assay results

From PubChem BioAssay record AID1159506 (NCATS, 2015).

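Luminescence from an EWS-FLI1 target-promoter (NR0B1) reporter, set against a CMV-promoter reporter, two days after silencing single genes in TC32 Ewing sarcoma cells.
Each siRNA was applied at 20 nM.
A z-score of the log NR0B1-over-CMV signal, less the median of siRNAs with the same seed; more negative means a stronger specific loss of the NR0B1 reporter.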

The strongest results of the screen are mostly left out here.
Sequences are the guide (antisense) strand, without overhang.

| Sequence | gene | seed-corrected z-score |
|---|---|---|
| `UUUUGCUCAACUUUAGGUG` | C17orf100 | 0.1461 |
| `UCGGUUAAAGCAAAAUAGC` | WDR4 | 0.4157 |
| `AACCUAGAGGGUGAUAUUC` | POMK | 0.07598 |
| `UUGGUGCCCAUCAAGUUGG` | TUB | -0.4202 |
| `AAAAGCACAACUAUCUCUG` | MEST | 0.05988 |
| `UACUUGUUAUAGAACAGGG` | OLFM2 | -0.08296 |
| `UUGCGUAAAGCCCUGCUCG` | SEMA3B | 0.01047 |
| `UGAGGUCAUAGAGAACUGU` | PLA2G4E | -0.8355 |
| `ACAGGUCUAGGAUCUCAAG` | GALP | 2.035 |
| `UGUAGAACCAGCGUACCUC` | DDHD1 | 0.612 |
| `UUACGUAAAUCCGCUCAUC` | OLFML2B | 0.2292 |
| `AACUCGUUGAACUUGAGCC` | ARL4C | -0.6373 |
| `UUGAGCUCCACGUUCUUGC` | FAM46B | 0.5305 |
| `UAUCUUGAGAGAUCAGUCU` | NMD3 | 1.063 |
| `AAACUAUCUUGUGCAACUC` | TCERG1 | 0.06466 |
| `UAACUCACAAAUCACUCUG` | CCDC102B | 0.205 |
| `UAAUUGCUACAGACUAAUG` | LOC645553 | 1.391 |
| `UCUACAUGGUGUUAAUUGC` | EMC6 | 0.6391 |
| `AUCUCGAACAACUACACUG` | KPNB1 | 0.4433 |
| `UAUGCGCCCAUAGAGAACC` | HTR1A | -0.6948 |
| `UUCCUUAAGUGUGCUGUUC` | RTN1 | 0.5891 |
| `UCAUAGGUCAUGGUUAGUC` | SLCO1B1 | -1.105 |
| `UUCUUUGUGAUAGAGCGAC` | FOXK1 | 0.04672 |
| `UCUGGAGACACUGCGAUCA` | CREG2 | 0.2009 |
| `AACUCUUGGACCAUGUUGC` | HEATR9 | -0.3244 |
| `UUUGUUCCAAGACAACUUG` | TNFSF8 | 1.881 |
| `AUACAGUCAUGUUAGCUCC` | RPEL1 | 0.7708 |
| `UUCCUGGCUCGAGCUACCU` | SLC22A31 | -0.7486 |
| `AAUGUUCUCCGUGCAUUCC` | CRYGN | -0.2973 |
| `UUGCAGAACGAGGUGAAGG` | F8A2 | 0.2696 |
| `UAAUCGGCCGAGAAGACUG` | ZP1 | 0.4415 |
| `AGUAAGAUAGAAACCCUCC` | WRN | 0.01091 |
| `UAGAGGUCCAGCUUAUUGU` | TLR9 | 0.6005 |
| `UUUUCUAUUCUGCAUCUUG` | RSPO2 | 0.07158 |
| `UUUGUUCCAAUGGAGAUUC` | APOPT1 | 1.091 |
| `UCCGUUUCCACGAUGAUUC` | TATDN2 | -1.12 |
| `ACUAUUUCAGGUGUAAGGC` | UBXN2B | 0.6162 |
| `UCUCGUAUUUGUCGUUAGC` | TCF21 | -0.2616 |
| `AAGGUCAUAAGAAGGCACC` | STAT6 | -0.05386 |
| `UUCAGAUUCCUUUAUAGGC` | CLNK | 1.654 |
| `UGUUAAAUCAUGCAUACUG` | REEP3 | 1.4 |
| `UGGUUGUGAAGUUGUAGGC` | KIAA1210 | -0.04815 |
| `AUACUUUGUCGUGAAGGUC` | ALOXE3 | -0.8781 |
| `UGCCGAUAAAGAGCAACUC` | SUCO | -0.7349 |
| `UGUCUCAAUGGAGCCCACG` | NKIRAS2 | 0.208 |
| `UGUGGUCUAAGAGCCGUUG` | SPRY4 | -0.4112 |
| `UUCAAGUUCAGUCACCCGC` | HOMER1 | 0.1997 |
| `UUUGCAACCUGUAACAAUU` | P4HA2 | 1.268 |
| `UGAUCUUCUCCACUAGUUG` | FAM63B | 0.03556 |
| `UAACUACAGUGAGAUGGGC` | OR4E1 | -0.3297 |
| `UAAGGGAGAACUGUAUCUG` | DTX3 | -0.75 |
| `UACCAGAAGAGUGAUGUAG` | KCNV1 | 0.582 |
| `UCAUUACUCCCGUAGACCG` | PWP1 | 0.2997 |
| `UCCUCGAUGAAAAUGGUAG` | FREM3 | -0.1048 |
| `UAAGAAUAGGGUAAUAGGG` | RAB6A | -0.1129 |
| `AAAUUGGUAUGCAGCGUCC` | CTXN1 | 0.02638 |

5 of the entries, repeated:

UUCCUUAAGUGUGCUGUUC against RTN1 read seed-corrected z-score 0.5891.
AAGGUCAUAAGAAGGCACC against STAT6 read seed-corrected z-score -0.05386.
AACUCGUUGAACUUGAGCC against ARL4C read seed-corrected z-score -0.6373.
UCUGGAGACACUGCGAUCA against CREG2 read seed-corrected z-score 0.2009.
UUGCGUAAAGCCCUGCUCG against SEMA3B read seed-corrected z-score 0.01047.